The results in this text go back to PubChem BioAssay AID662 (National Center for Advancing Translational Sciences (NCATS), 2007).

This is one part of the list. Further columns of the screen follow, without active or inactive calls. Compounds called inactive in the main read-out are mostly missing here. Potencies come from curve fits of mixed quality, noted in brackets.

The nature of this test: Cell signaling CRE-BLA (Fsk stim). The settings on record: CHO CRE-bla reporter (cAMP response element driving beta-lactamase), forskolin EC10, beta-lactamase ratio; measured here: 460 nm blue channel. The procedure, abridged: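 AC50 values, positive or negative, reflect shifts in EC10 NKH 477-induced CRE-bla reporter activity in CHO cells. Incubation lasted 3 h at 37 °C before CCF4 substrate (2 h, room temperature) and ratiometric 460/530 nm reading.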
Broadly, the AC50 is the concentration at which the activity in the assay is half-maximal. With `N#Cc1c(N)n(CCCN2CCOCC2)c2nc3ccccc3nc12`, the AC50 is 12.6 µM [rising, partial curve]. The same measure for `COC(=O)[C@@]1(Cc2ccccc2)[C@H]2c3cc(C(=O)N4CCCC4)n(Cc4ccc(C(F)(F)F)nc4)c3C[C@H]2CN1C(=O)c1ccccc1`: 20 µM [rising, single point]; for `Cc1cc(=O)oc2n[nH]c(-c3ccccc3)c12`: 10 µM [rising, partial curve]. For `O=C(CSc1nnnn1-c1cccnc1)NCc1cccs1` the value was 25.1 µM [falling, single point]; for `COC(=O)c1c(-c2ccccc2)csc1NC(=O)c1ccco1`, 2 µM [rising, partial curve]. For `COc1cc(OC)c(C(=O)NC2CCCCCC2)cc1OC` the value was 10 µM [rising, partial curve]; for `CCOC(=O)c1cc2c(=O)n3ccccc3nc2n(CCCOC)c1=NC(C)=O`, 12.6 µM [rising, partial curve]. Turning to `Cc1noc(C)c1-c1ccc2ncnc(N(C)C)c2c1`, the AC50 was 6.31 µM [rising, partial curve].

Turning to `CCC(Sc1nc(=O)cc(N)n1-c1cccc(C)c1)C(=O)Nc1cc(C)on1` (stereo not given), the AC50 was 12.6 µM [falling, partial curve].

With `O=c1c(CCc2ccccc2)nc2cnc(N3CCOCC3)nc2n1-c1ccccc1`, the AC50 was 12.6 µM [rising, partial curve]. For `CC(C)=CC(=O)OCC(=O)Nc1nc(C)c(Cl)cc1Cl` the value was 0.631 µM [falling, full curve]; for `CCn1c(=O)c(C(=O)NCCCO)c(O)c2ccccc21`, 10 µM [rising, partial curve]; for `CC(=O)c1cc(C#N)c(SCCC(C)C)nc1C`, 5.01 µM [falling, single point].

Take `COc1ccc(C(=O)NCC2OCCc3ccccc32)c(O)c1` (stereo not given): the AC50 was 0.00316 µM [falling, full curve, poor fit].

Regarding `CCOCCCNC(=O)c1cc2c(-c3ccc(Cl)cc3)nn(C)c2s1`, the AC50 was 1 µM [rising, partial curve]. The same measure for `Cc1ccnc2nc(C(=O)OCCOc3cccc(Br)c3)nn12`: 15.8 µM [rising, single point]. The same measure for `COC(=O)CNc1nc(-c2ccncc2)nc2ccccc12`: 7.94 µM [rising, partial curve]; for `COc1ccc(-c2noc(-c3ccccc3-c3ccccc3)n2)cc1OC`: 6.31 µM [rising, partial curve]; for `CC(C)N1C(=O)C2C(C(=O)NCc3ccccc3)C3C=CC2(O3)C1C(=O)NC(C)(C)C` (stereo not given): 3.16 µM [falling, partial curve, poor fit]. As for `CCOCCc1nnc(NC(=O)c2cc(OC)c(OC)c(OC)c2)s1`, the concentration at half-maximal activity (AC50) was 1.58 µM [rising, full curve]. Turning to `CCOC(=O)c1ccccc1N/C=C1\CCCC1=O`, the AC50 was 12.6 µM [rising, single point]. With `Cn1cc(C(=O)NCCN2CCN(c3ccccc3F)CC2)c2c3ccccc3n(C)c2c1=O`, the AC50 is 25.1 µM [rising, single point].

Take `CCCCNC(=O)c1cc2c(=O)n3cccc(C)c3nc2n(Cc2ccccc2)c1=N`: the AC50 was 3.98 µM [rising, partial curve]. The same measure for `CCOC(=O)CC(=O)CSc1ccc2nnc(-c3cccc(F)c3)n2n1`: 10 µM [rising, partial curve]. The same measure for `COc1ccccc1OCc1ccc(C(=O)N2CCN3CCCC3C2)cc1` (stereo not given): 0.0794 µM [falling, full curve, poor fit]; for `CSc1cccc(NC(=O)OC2CCCCCCCCCCC2)c1`: 0.501 µM [falling, single point]; for `Cc1cc(-c2nnco2)c(C)n1-c1ccccc1`: 10 µM [rising, partial curve]. For the compound `CCOC(=O)N1CCC(NC(=O)CSCc2cnn(-c3ccccc3)c2-n2cccc2)CC1`, the AC50 is 5.01 µM [rising, single point].

As for `Cn1c(=O)c2[nH]cnc2n(C)c1=O`, the AC50 is 5.01 µM [rising, single point]. The same measure for `O=C(Nc1cccs1)NC1CCCC1`: 0.631 µM [falling, single point]; for `COCCn1c(=O)c(C)nc2cnc(Oc3cccc(Cl)c3)nc21`: 20 µM [rising, single point]. For `COC(=O)c1ccc(C(c2c(N)n(CC(C)C)c(=O)[nH]c2=O)N2CCN(c3ccccc3)CC2)cc1` (stereo not given) the value was 25.1 µM [rising, single point].

Regarding `COC(=O)c1ccc(CSc2nc(-c3ccccc3)cs2)o1`, the AC50 is 12.6 µM [rising, single point]. For `Cc1cc(C)c(O)c(-c2cc(C(=O)Nc3ccc(S(=O)(=O)N4CCOCC4)cc3)[nH]n2)c1` the value was 25.1 µM [falling, single point]; for `COC(=O)c1cc(OC)c(OC)cc1NC(=O)c1cccnc1`, 5.01 µM [rising, partial curve]. For `C=CCN(CC=C)c1nc2ccccc2nc1C(C#N)C(=O)OCCOC` (stereo not given) the value was 10 µM [rising, partial curve]; for `O=C(Oc1cccc(Br)c1)c1cccnc1`, 25.1 µM [falling, single point]. As to `Cn1c(=O)c(-c2cc(F)cc(F)c2)nc2cnc(Oc3cccc(Cl)c3)nc21`, the AC50 was 10 µM [rising, partial curve]. The same measure for `Cc1ccsc1/C=N/n1cnc2sc(C)c(C)c2c1=O`: 5.01 µM [falling, single point]; for `Cc1noc(C)c1S(=O)(=O)Nc1ccc(C(=O)O)cc1`: 12.6 µM [rising, single point]. For `CCOC(=O)NC(=O)CSc1nnnn1-c1ccc(C)cc1` the value was 0.316 µM [falling, full curve, poor fit]; for `CC(NC(=O)c1cccnc1)C(c1cccs1)N1CCOCC1` (stereo not given), 1.58 µM [falling, partial curve]. The same measure for `COC(=O)c1ccc(NC(=O)CSc2nncn2C)cc1`: 3.98 µM [falling, single point]; for `Cc1ccnc2c1NC(=O)c1cccnc1N2C1CC1`: 15.8 µM [rising, single point]. With `COC(=O)c1ccc(CSc2nc(C)nc3sc(C)c(C)c23)o1`, the AC50 was 1.26 µM [rising, partial curve].
